# The other results are listed elsewhere or left out.
# B1: GS7807I-bvu-563-22-563 (Bacteroides vulgatus) (protein)
# chain: IFSSCTDDFEKLNTSNIQVDPADLPFAAQCTEPMTYCYPPQQNMFQFWTNLTIDLYGGYFMTPNGNFTNGDMGENRGHSGGMYENYYLHIFNNTRRIIAQCDASGERGLSGVMRIVQAYGTLMTTDAYGPIPYSSILSGENEVYFEFDSQKDLYKAMLEDLSTAITDISAMGADEIAKLKSFDCWCNGDKDLWVKIANTMKLRMALRLSKRETEAGNAGMNLKAIATEAAQNTLATVNKDILIDKSLENEMWLMFNWGDCGFNANLVTIMSGTKDPRQPLYMTLNTGDIKNEAGTTTVAANSQYLGIRFASGLPAKPNSWGNFSGWIQGNNGSSYSMPLPIMKAAEAYFLLAEAKLRWDIGSESVKNLYENGIRVSMTNELAYRGAYAGIKEYPEGAVDAYINGTSTQIDYTDPIKAELSTPAVNKLSVKWDESASNEEKLERIITQKWLALFPLSTEGWAEQRRTGYPRFFPAFVNESNGAVNTEEGVRRVIYSSQAYDANAKGVEGGIKLLDEENSSKFGISGDKGGTHLWWDNADKGNF
# Assays:
# Test in all cases: glycan array binding signal (z-score within array); higher = stronger binding
# Conditions in all cases: glycan notation: IUPAC condensed, linker removed
# Neu5Ac(a2-8)Neu5Ac = target: Neu5Ac(a2-8)Neu5Ac
# Summary of the method: (§1)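 Arrays were curated from the Consortium for Functional Glycomics database, 3228 in total, and kept only where the protein sequence was available. Binding is expressed as a within-array Z-score. This score was averaged across arrays of the same protein sequence at different concentrations or buffers and across linkers, and negative values can be read as non-binding.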
# [1] = target: Neu5Ac(a2-8)Neu5Ac(a2-3)Gal(b1-3)GalNAc(b1-4)[Neu5Ac(a2-3)]Gal(b1-4)Glc
# Summary of the method: as §1
# [2] = target: Neu5Ac(a2-8)Neu5Ac(a2-3)Gal(b1-3)GalNAc(b1-4)[Neu5Ac(a2-8)Neu5Ac(a2-3)]Gal(b1-4)Glc
# Summary of the method: as §1
# [3] = target: Neu5Ac(a2-8)Neu5Ac(a2-3)Gal(b1-4)Glc
# Summary of the method: as §1
# [4] = target: Neu5Ac(a2-8)Neu5Ac(a2-3)Gal(b1-4)GlcNAc
# Summary of the method: as §1
# [5] = target: Neu5Ac(a2-8)Neu5Ac(a2-3)[Gal(b1-3)GalNAc(b1-4)]Gal(b1-4)Glc
# Summary of the method: as §1
# [6] = target: Neu5Ac(a2-8)Neu5Ac(a2-3)[GalNAc(b1-4)]Gal(b1-4)Glc
# Summary of the method: as §1
# [7] = target: Neu5Ac(a2-8)Neu5Ac(a2-8)Neu5Ac
# Summary of the method: as §1
# [8] = target: Neu5Ac(a2-8)Neu5Ac(a2-8)Neu5Ac(a2-3)Gal(b1-4)Glc
# Summary of the method: as §1
# [9] = target: Neu5Ac(a2-8)Neu5Ac(a2-8)Neu5Ac(a2-3)[Gal(b1-3)GalNAc(b1-4)]Gal(b1-4)Glc
# Summary of the method: as §1
# [10] = target: Neu5Ac(a2-8)Neu5Ac(a2-8)Neu5Ac(a2-3)[GalNAc(b1-4)]Gal(b1-4)Glc
# Summary of the method: as §1
# [11] = target: Neu5Ac(a2-8)Neu5Ac(a2-8)Neu5Ac(a2-8)Neu5Ac(a2-3)[GalNAc(b1-4)]Gal(b1-4)Glc
# Summary of the method: as §1
# [12] = target: Neu5Ac(a2-8)Neu5Gc(a2-3)Gal(b1-4)GlcNAc
# Summary of the method: as §1
# [13] = target: Neu5Ac(b2-6)Gal(b1-4)GlcNAc
# Summary of the method: as §1
# Neu5Ac(b2-6)GalNAc = target: Neu5Ac(b2-6)GalNAc
# Summary of the method: as §1
# [14] = target: Neu5Ac9Ac(a2-3)Gal(b1-3)GlcNAc
# Summary of the method: as §1
# [15] = target: Neu5Ac9Ac(a2-3)Gal(b1-4)GlcNAc
# Summary of the method: as §1
# [16] = target: Neu5Ac9Ac(a2-6)Gal(b1-4)GlcNAc
# Summary of the method: as §1
# [17] = target: Neu5Gc(a2-3)Gal(b1-3)GlcNAc
# Summary of the method: as §1
# [18] = target: Neu5Gc(a2-3)Gal(b1-3)[Fuc(a1-4)]GlcNAc
# Summary of the method: as §1
# Neu5Gc(a2-3)Gal(b1-4)Glc = target: Neu5Gc(a2-3)Gal(b1-4)Glc
# Summary of the method: as §1
# [19] = target: Neu5Gc(a2-3)Gal(b1-4)GlcNAc
# Summary of the method: as §1
# [20] = target: Neu5Gc(a2-3)Gal(b1-4)GlcNAc(b1-3)Gal(b1-4)GlcNAc(b1-2)Man(a1-3)[Neu5Gc(a2-3)Gal(b1-4)GlcNAc(b1-3)Gal(b1-4)GlcNAc(b1-2)Man(a1-6)]Man(b1-4)GlcNAc(b1-4)GlcNAc
# Summary of the method: as §1
# [21] = target: Neu5Gc(a2-3)Gal(b1-4)[Fuc(a1-3)]GlcNAc
# Summary of the method: as §1
# [22] = target: Neu5Gc(a2-6)Gal(b1-4)GlcNAc
# Summary of the method: as §1
# Neu5Gc(a2-6)GalNAc = target: Neu5Gc(a2-6)GalNAc
# Summary of the method: as §1
# [23] = target: Neu5Gc(a2-8)Neu5Ac(a2-3)Gal(b1-4)GlcNAc
# Summary of the method: as §1
# [24] = target: Neu5Gc(a2-8)Neu5Gc(a2-3)Gal(b1-4)GlcNAc
# Summary of the method: as §1
# [25] = target: Neu5Gc(a2-8)Neu5Gc(a2-3)Gal(b1-4)GlcNAc(b1-3)Gal(b1-4)GlcNAc
# Summary of the method: as §1
# [26] = target: Neu5Gc(a2-8)Neu5Gc(a2-6)Gal(b1-4)GlcNAc
# Summary of the method: as §1
# [27] = target: Neu5Gc(b2-6)Gal(b1-4)GlcNAc
# Summary of the method: as §1
binder,measurement,setting,value
B1,glycan array binding signal (z-score),Neu5Ac(a2-8)Neu5Ac,-0.841
same,glycan array binding signal (z-score),[1],-0.4
same,glycan array binding signal (z-score),[2],0.202
same,glycan array binding signal (z-score),[3],-0.815
same,glycan array binding signal (z-score),[4],-1.14
same,glycan array binding signal (z-score),[5],-1.22
same,glycan array binding signal (z-score),[6],-0.73
same,glycan array binding signal (z-score),[7],-0.325
same,glycan array binding signal (z-score),[8],0.406
same,glycan array binding signal (z-score),[9],-0.112
same,glycan array binding signal (z-score),[10],-0.995
same,glycan array binding signal (z-score),[11],0.09
same,glycan array binding signal (z-score),[12],-0.153
same,glycan array binding signal (z-score),[13],-0.47
same,glycan array binding signal (z-score),Neu5Ac(b2-6)GalNAc,-1.47
same,glycan array binding signal (z-score),[14],0.259
same,glycan array binding signal (z-score),[15],0.474
same,glycan array binding signal (z-score),[16],-0.67
same,glycan array binding signal (z-score),[17],-0.318
same,glycan array binding signal (z-score),[18],1.23
same,glycan array binding signal (z-score),Neu5Gc(a2-3)Gal(b1-4)Glc,-1.04
same,glycan array binding signal (z-score),[19],-1.32
same,glycan array binding signal (z-score),[20],-0.981
same,glycan array binding signal (z-score),[21],-1.27
same,glycan array binding signal (z-score),[22],-0.874
same,glycan array binding signal (z-score),Neu5Gc(a2-6)GalNAc,-0.534
same,glycan array binding signal (z-score),[23],0.615
same,glycan array binding signal (z-score),[24],-1.24
same,glycan array binding signal (z-score),[25],0.112
same,glycan array binding signal (z-score),[26],-0.625
same,glycan array binding signal (z-score),[27],-0.415

# Already shown: an excerpt of the list.
binder,measurement,setting,value
B1,glycan array binding signal (z-score),[10],-0.995
same,glycan array binding signal (z-score),[11],0.09

# Reference: the supplement of paper PMC8728848
